These are yes or no findings as the source states them, for the method shown. For part of these data: A result given as binding can be weak or reduced; the word gives no strength. For part of these data: In cells and extracts the contact can be indirect. For part of these data: Sequences can lack the tags named with a protein.
B1: GLABRA3 (GL3) (protein, UniProt Q9FN69 1-637)
chain: MATGQNRTTVPENLKKHLAVSVRNIQWSYGIFWSVSASQSGVLEWGDGYYNGDIKTRKTIQASEIKADQLGLRRSEQLSELYESLSVAESSSSGVAAGSQVTRRASAAALSPEDLADTEWYYLVCMSFVFNIGEGMPGRTFANGEPIWLCNAHTADSKVFSRSLLAKSAAVKTVVCFPFLGGVVEIGTTEHITEDMNVIQCVKTSFLEAPDPYATILPARSDYHIDNVLDPQQILGDEIYAPMFSTEPFPTASPSRTTNGFDQEHEQVADDHDSFMTERITGGASQVQSWQLMDDELSNCVHQSLNSSDCVSQTFVEGAAGRVAYGARKSRVQRLGQIQEQQRNVKTLSFDPRNDDVHYQSVISTIFKTNHQLILGPQFRNCDKQSSFTRWKKSSSSSSGTATVTAPSQGMLKKIIFDVPRVHQKEKLMLDSPEARDETGNHAVLEKKRREKLNERFMTLRKIIPSINKIDKVSILDDTIEYLQELERRVQELESCRESTDTETRGTMTMKRKKPCDAGERTSANCANNETGNGKKVSVNNVGEAEPADTGFTGLTDNLRIGSFGNEVVIELRCAWREGVLLEIMDVISDLHLDSHSVQSSTGDGLLCLTVNCKHKGSKIATPGMIKEALQRVAWIC
B2: GL3-cYFP (protein, UniProt Q9FN69 1-637)
chain: MATGQNRTTVPENLKKHLAVSVRNIQWSYGIFWSVSASQSGVLEWGDGYYNGDIKTRKTIQASEIKADQLGLRRSEQLSELYESLSVAESSSSGVAAGSQVTRRASAAALSPEDLADTEWYYLVCMSFVFNIGEGMPGRTFANGEPIWLCNAHTADSKVFSRSLLAKSAAVKTVVCFPFLGGVVEIGTTEHITEDMNVIQCVKTSFLEAPDPYATILPARSDYHIDNVLDPQQILGDEIYAPMFSTEPFPTASPSRTTNGFDQEHEQVADDHDSFMTERITGGASQVQSWQLMDDELSNCVHQSLNSSDCVSQTFVEGAAGRVAYGARKSRVQRLGQIQEQQRNVKTLSFDPRNDDVHYQSVISTIFKTNHQLILGPQFRNCDKQSSFTRWKKSSSSSSGTATVTAPSQGMLKKIIFDVPRVHQKEKLMLDSPEARDETGNHAVLEKKRREKLNERFMTLRKIIPSINKIDKVSILDDTIEYLQELERRVQELESCRESTDTETRGTMTMKRKKPCDAGERTSANCANNETGNGKKVSVNNVGEAEPADTGFTGLTDNLRIGSFGNEVVIELRCAWREGVLLEIMDVISDLHLDSHSVQSSTGDGLLCLTVNCKHKGSKIATPGMIKEALQRVAWIC

Assays:
[1] = biological target: T1, GL1 (Arabidopsis) (UniProt P27900); assay: two-hybrid; dimer tests of MYB82 and GL1, full length and fragments, in pGBKT7 or pGADT7 (which in which is not told); growth on synthetic dropout medium lacking Leu/Trp/His/Ade and containing 5mM 3AT
T1 sequence: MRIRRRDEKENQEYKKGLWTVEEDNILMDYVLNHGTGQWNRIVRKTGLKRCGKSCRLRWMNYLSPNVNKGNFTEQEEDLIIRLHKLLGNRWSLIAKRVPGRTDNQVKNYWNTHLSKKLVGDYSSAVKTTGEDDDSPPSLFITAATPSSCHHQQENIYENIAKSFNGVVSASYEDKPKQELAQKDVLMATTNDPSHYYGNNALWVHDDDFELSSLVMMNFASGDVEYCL

[2] = biological target: T2, MYB82 (Arabidopsis) (UniProt Q9LTF7); assay: as above
T2 sequence: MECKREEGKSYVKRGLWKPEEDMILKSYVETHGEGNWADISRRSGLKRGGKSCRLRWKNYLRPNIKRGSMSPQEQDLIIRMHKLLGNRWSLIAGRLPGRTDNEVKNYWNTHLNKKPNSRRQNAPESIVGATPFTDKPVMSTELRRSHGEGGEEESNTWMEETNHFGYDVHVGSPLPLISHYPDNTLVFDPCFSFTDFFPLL

[3] = biological target: T3, MYB82-nYFP (Arabidopsis) (UniProt Q9LTF7); assay: split reporter; BiFC: nYFP and cYFP fusions transiently coexpressed in N. benthamiana leaves by Agrobacterium infiltration, 24 °C for 48h before observation
T3 sequence: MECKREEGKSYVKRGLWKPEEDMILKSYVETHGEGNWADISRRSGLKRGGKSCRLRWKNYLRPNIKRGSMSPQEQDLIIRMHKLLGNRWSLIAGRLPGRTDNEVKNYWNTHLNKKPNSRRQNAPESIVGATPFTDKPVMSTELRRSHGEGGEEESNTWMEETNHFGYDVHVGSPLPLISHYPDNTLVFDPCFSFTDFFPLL

[4] = biological target: nMYB82, N-terminal R2R3-MYB domain of MYB82 (Arabidopsis); assay: two-hybrid; MYB82 and its fragments fused to the BD of pGBKT7, GL3 fused to the AD of pGADT7; growth on synthetic dropout medium lacking Leu/Trp/His/Ade and containing 5mM 3AT
[5] = biological target: nYFP, N-terminal fragment of yellow fluorescent protein; assay: split reporter; BiFC: nYFP and cYFP fusions transiently coexpressed in N. benthamiana leaves by Agrobacterium infiltration, 24 °C for 48h before observation

Row | Molecule | binding [1] | binding [2] | also measured
1 | nGL1, N-terminal R2R3-MYB domain of GL1 (Arabidopsis) (domain or fragment) | binds | binds | 
2 | cMYB82, C-terminal domain of MYB82 (Arabidopsis) (domain or fragment) | no binding | no binding | 
3 | nMYB82, N-terminal R2R3-MYB domain of MYB82 (Arabidopsis) (domain or fragment) | binds | binds | 
4 | cYFP, C-terminal fragment of yellow fluorescent protein (domain or fragment) |  |  | binding [3]: no binding
5 | B1 |  |  | binding [4]: binds
6 | B2 |  |  | binding [5]: no binding
